PMC6274357, “Antiprotozoal and Antiglycation Activities of Sesquiterpene Coumarins from Ferula narthex Exudate” (Molecules, 2016)
Values joined by “and” are separate entries in the source; they are usually repeats but may differ in a detail not shown here. Equal entries are not always repeated.

Tested on: MRC-5: Human fetal lung fibroblasts
Assay: Cytotoxicity on MRC-5 cells
Format: cell-based
Conditions: MRC5
Experimental: Fractions and isolated compounds were evaluated for antimicrobial activity in an integrated screening panel as reported before.

CC/C(=C(\c1ccccc1)c1ccc(OCCN(C)C)cc1)c1ccccc1 [Tamoxifen, reference compound]
IC50: 11.4 µg/mL and 11.3 µM
